This note sets out measurements from PMC6150519.

The chains behind the UniProt entries cited, without tags or fusion partners. Where a name states a change or a piece, a line headed by the entry shows the natural chain unless it says otherwise.
UniProt B2RSH2: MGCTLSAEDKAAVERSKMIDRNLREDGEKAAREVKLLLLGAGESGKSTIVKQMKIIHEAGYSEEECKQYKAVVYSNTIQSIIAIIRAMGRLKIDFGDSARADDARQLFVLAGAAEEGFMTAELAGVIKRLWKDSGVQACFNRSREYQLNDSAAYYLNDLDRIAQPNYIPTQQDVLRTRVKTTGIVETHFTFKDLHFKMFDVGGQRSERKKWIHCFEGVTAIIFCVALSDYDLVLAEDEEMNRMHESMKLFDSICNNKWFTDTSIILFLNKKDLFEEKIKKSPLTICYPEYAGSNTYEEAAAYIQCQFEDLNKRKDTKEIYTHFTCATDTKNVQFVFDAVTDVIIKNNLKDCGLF
UniProt P04761: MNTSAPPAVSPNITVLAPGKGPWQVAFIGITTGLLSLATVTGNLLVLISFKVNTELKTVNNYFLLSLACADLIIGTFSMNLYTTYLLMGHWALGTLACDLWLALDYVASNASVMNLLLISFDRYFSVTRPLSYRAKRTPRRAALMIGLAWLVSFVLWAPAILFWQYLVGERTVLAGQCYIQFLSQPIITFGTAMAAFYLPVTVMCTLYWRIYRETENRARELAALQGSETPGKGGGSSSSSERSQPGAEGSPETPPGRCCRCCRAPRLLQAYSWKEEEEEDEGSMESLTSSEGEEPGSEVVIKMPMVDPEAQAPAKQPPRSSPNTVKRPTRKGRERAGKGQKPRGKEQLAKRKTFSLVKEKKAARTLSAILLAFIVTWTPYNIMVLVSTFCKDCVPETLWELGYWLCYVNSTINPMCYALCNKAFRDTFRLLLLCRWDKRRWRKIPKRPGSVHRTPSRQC

The target in assay [1] is Gαi1-CFP (mouse) (UniProt B2RSH2). Description: FRET or BRET; acceptor bleaching under TIRF illumination in living HEK293T cells; FRET from Gαi1-CFP to receptor-YFP (or prestin-YFP), cells transfected together with Gβ1 and Gγ2; absence or presence of oxo-M (10 uM).
For assay [2] the target is unchanged. The assay is described as above. The source holds these as a separate data set.

Like-named read-outs stand apart in the source and are kept apart here. No constants are given. Whether binding was seen depends on the method and setting. In cells and extracts the contact can be indirect. For some assays here: Where a sequence is shown, tags or fusion partners need not be part of it.

“M1R-YFP (from UniProt P04761 1-460) (receptor)”: the binding result in assay [1] was “no binding”.

B1: prestin-YFP (protein, UniProt Q9EPH0 1-744)
chain: MDHAEENEIPAETQKYLVERPIFSHPVLQERLHVKDKVTDSIGDKLKQAFTCTPKKVRNIIYMFLPITKWLPAYKFKEYVLGDLVSGISTGVLQLPQGLAFAMLAAVPPVFGLYSSFYPVIMYCFFGTSRHISIGPFAVISLMIGGVAVRLVPDDIVIPGGVNATNGTEARDALRVKVAMSVTLLSGIIQFCLGVCRFGFVAIYLTEPLVRGFTTAAAVHVFTSMLKYLFGVKTKRYSGIFSVVYSTVAVLQNVKNLNVCSLGVGLMVFGLLLGGKEFNERFKEKLPAPIPLEFFAVVMGTGISAGFNLHESYSVDVVGTLPLGLLPPANPDTSLFHLVYVDAIAIAIVGFSVTISMAKTLANKHGYQVDGNQELIALGICNSIGSLFQTFSISCSLSRSLVQEGTGGKTQLAGCLASLMILLVILATGFLFESLPQAVLSAIVIVNLKGMFMQFSDLPFFWRTSKIELTIWLTTFVSSLFLGLDYGLITAVIIALLTVIYRTQSPSYTVLGQLPDTDVYIDIDAYEEVKEIPGIKIFQINAPIYYANSDLYSSALKRKTGVNPAIIMGARRKAMRKYAKEVGNANIANATVVKVDAEVDGENATKPEEEDDEVKFPPIVIKTTFPEELQRFLPQGENIHTVILDFTQVNFMDSVGVKTLAGIVKEYGDVGIYVYLAGCSAQVVNDLTSNRFFENPALKELLFHSIHDAVLGSQVREAMAEQETTVLPPQEDMEPNATPTTPEA
For the molecule B1, the binding entry in assay [2] is “no binding”.
